Results deposited as PubChem BioAssay AID602196 (INSERM, 2012)
Shown is one part, drawn at random, of about 23,000 reagents tested. 455 of them (2%) were called active. 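Active includes both protection and sensitisation; some change values fall well beyond the stated -50 to +50 range.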 Not given: the amount of reagent.

Assay: 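Knock-downs that protect lung cancer cells from cisplatin or sensitise them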
Cells: human A549 lung cancer cells
Knock-down reagent: siRNA pair against human genes
Timing: 48 h transfection before cisplatin; time from cisplatin to read-out not stated
Treatment: cisplatin at a dose killing half of control-siRNA cells; exact dose and duration not given
Measurement: 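Shift in cisplatin death relative to control siRNA, from -50 (all cells die) to +50 (no cells die); siRNAs harmful on their own scored 0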
Scale: two-siRNA summed score (-2 to +2): higher = both siRNAs protect from cisplatin killing; -2 means both sensitise; mean protection from cisplatin (shift in death) and protection from cisplatin (shift in death), siRNA C and protection from cisplatin (shift in death), siRNA D: higher = protection from cisplatin killing
Call rule: 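siRNAs harmful alone (LDH or WST-1) get 0; others get +1 for less and -1 for more cisplatin killing; genes are active when the two siRNAs give the same sign, summing to ±2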
Calls: active = both siRNAs shift cisplatin killing the same way; inactive = no consistent shift, or siRNA harmful alone

no.	Gene	PubChem SID	two-siRNA summed score (-2 to +2)	mean protection from cisplatin (shift in death) (%)	protection from cisplatin (shift in death), siRNA C (%)	protection from cisplatin (shift in death), siRNA D (%)	Call
1	LOC401103	SID131512973	0	6.1	11	1.1	inactive
2	RBMY1A1 (RNA binding motif protein Y-linked family 1 member A1)	SID131505121	0	-3.7	1.8	-9.3	inactive
3	HCST (hematopoietic cell signal transducer)	SID131514357	0	7.7	12.5	2.9	inactive
4	NKAPD1 (NKAP domain containing 1)	SID131513214	0	6.3	6.2	6.5	inactive
5	NUTM2D (NUT family member 2D)	SID131508757	0	1.4	12.8	-9.9	inactive
6	ZBTB45 (zinc finger and BTB domain containing 45)	SID131511157	0	4	-1.9	10	inactive
7	TRPC5	SID131504375	0	-5.6	9.7	-20.9	inactive
8	ZNF433 (zinc finger protein 433)	SID131504837	0	-4.4	-11.9	3.2	inactive
9	AK8 (adenylate kinase 8)	SID131513013	0	6.1	-1.8	14	inactive
10	ARIH1 (ariadne RBR E3 ubiquitin protein ligase 1)	SID131500334	-2	-22.9	-22.5	-23.2	active
11	TRNT1 (tRNA nucleotidyl transferase 1)	SID131507913	0	0.4	22.5	-21.7	inactive
12	SERPINA10 (serpin family A member 10)	SID131500758	-1	-16.5	10.5	-43.4	inactive
13	LOC441044	SID131507510	0	0	3.9	-4	inactive
14	LOC442208	SID131503780	0	-7.8	-7.3	-8.4	inactive
15	LAMA1 (laminin subunit alpha 1)	SID131517707	0	14.4	34.2	-5.3	inactive
16	SDR16C5 (short chain dehydrogenase/reductase family 16C member 5)	SID131504694	0	-4.7	-7.5	-2	inactive
17	FBXO15 (F-box protein 15)	SID131504972	0	-4.1	-1.9	-6.2	inactive
18	LOC441577	SID131516354	0	10.7	12.2	9.3	inactive
19	KLHL26 (kelch like family member 26)	SID131520317	1	9.5	-0.5	19.5	inactive
20	LOC442503	SID131510306	0	3.1	6.6	-0.4	inactive
21	OSTF1 (osteoclast stimulating factor 1)	SID131507347	0	-0.2	12.7	-13.2	inactive
22	NACC2 (NACC family member 2)	SID131504901	0	-4.2	12.4	-20.8	inactive
23	MTFMT (mitochondrial methionyl-tRNA formyltransferase)	SID131508703	0	1.3	2.2	0.5	inactive
24	KRT19 (keratin 19)	SID131502494	-1	-1.9	10.7	-14.4	inactive
25	ATG13 (autophagy related 13)	SID131518237	0	17.5	22.7	12.2	inactive
26	PNN (pinin, desmosome associated protein)	SID131518989	1	0.1	-24.6	24.7	inactive
27	PPIP5K1 (diphosphoinositol pentakisphosphate kinase 1)	SID131520598	1	10.4	3.6	17.2	inactive
28	SOAT1 (sterol O-acyltransferase 1)	SID131515136	0	8.7	11.5	5.9	inactive
29	PLCZ1 (phospholipase C zeta 1)	SID131522375	1	18	24.5	11.5	inactive
30	REEP3 (receptor accessory protein 3)	SID131502293	-1	-3.6	12.4	-19.7	inactive
31	CELA1 (chymotrypsin like elastase 1)	SID131514758	0	8.2	14.2	2.2	inactive
32	SLC27A6	SID131517991	0	15.8	11.2	20.4	inactive
33	SLC27A6	SID131522877	1	28.8	23	34.7	inactive
34	FLJ40162	SID131518657	0	23.6	16.8	30.5	inactive
35	CABS1 (calcium binding protein, spermatid associated 1)	SID131516708	0	11.5	22.4	0.5	inactive
36	HTR3B (5-hydroxytryptamine receptor 3B)	SID131501616	-1	-8.6	-14.1	-3.2	inactive
37	COX7C (cytochrome c oxidase subunit 7C)	SID131522978	2	15.4	12.6	18.2	active
38	ARHGDIG (Rho GDP dissociation inhibitor gamma)	SID131501637	-1	-8.5	-8.8	-8.2	inactive
39	CD109 (CD109 molecule)	SID131520293	1	9.4	14.7	4.1	inactive
40	LIN54 (lin-54 DREAM MuvB core complex component)	SID131516714	0	11.5	4.3	18.6	inactive
41	TRAF3IP2 (TRAF3 interacting protein 2)	SID131510136	0	2.9	7	-1.1	inactive
42	YKT6P1 (YKT6 pseudogene 1)	SID131520775	1	11.1	23.1	-1	inactive
43	RBM8A (RNA binding motif protein 8A)	SID131506561	0	-1.3	9.2	-11.9	inactive
44	PCID2 (PCI domain containing 2)	SID131514670	0	8.1	3.2	13	inactive
45	RIPK2 (receptor interacting serine/threonine kinase 2)	SID131503266	0	-11.5	-18.3	-4.7	inactive
46	LOC442508	SID131520441	1	9.9	3.6	16.3	inactive
47	BICD2 (BICD cargo adaptor 2)	SID131511103	0	4	-0.7	8.6	inactive
48	RETSAT (retinol saturase)	SID131501070	-1	-12.6	-5	-20.3	inactive
49	REV1 (REV1 DNA directed polymerase)	SID131502846	0	-23.3	-17.6	-29.1	inactive
50	CDK15 (cyclin dependent kinase 15)	SID131523232	2	32.4	40.8	24	active
51	LOC286208	SID131514939	0	8.4	7.1	9.7	inactive
52	ZNF322 (zinc finger protein 322)	SID131514653	0	8.1	10.6	5.6	inactive
53	LOC388514	SID131504452	0	-5.4	3.7	-14.4	inactive
54	HPS6 (HPS6 biogenesis of lysosomal organelles complex 2 subunit 3)	SID131511847	0	4.8	-2.7	12.4	inactive
55	ZNF324B (zinc finger protein 324B)	SID131508840	0	1.5	-2.9	6	inactive
56	DUOXA2 (dual oxidase maturation factor 2)	SID131517603	0	14	7.5	20.6	inactive
57	TNFRSF10C (TNF receptor superfamily member 10c)	SID131501800	-1	-7.3	-21.1	6.5	inactive
58	SLC6A9	SID131507634	0	0.1	35.7	-35.5	inactive
59	FOXE3 (forkhead box E3)	SID131503625	0	-8.8	-8.2	-9.4	inactive
60	TENM2 (teneurin transmembrane protein 2)	SID131502934	0	-18	-37.8	1.7	inactive
61	KLRA1P (killer cell lectin like receptor A1, pseudogene)	SID131512654	0	5.7	11.1	0.4	inactive
62	FAM124A (family with sequence similarity 124 member A)	SID131507916	0	0.4	-20.1	21	inactive
63	LOC400745	SID131521628	1	14.2	24.7	3.7	inactive
64	RMDN1 (regulator of microtubule dynamics 1)	SID131510342	0	3.2	7.3	-1	inactive
65	APOBEC3G (apolipoprotein B mRNA editing enzyme catalytic subunit 3G)	SID131520422	1	9.8	27.9	-8.2	inactive
66	KCNJ10 (potassium inwardly rectifying channel subfamily J member 10)	SID131507198	0	-0.4	6.4	-7.2	inactive
67	DNAJB2 (DnaJ heat shock protein family (Hsp40) member B2)	SID131504373	0	-5.6	-11.2	0	inactive
68	GOLT1A (golgi transport 1A)	SID131523067	2	18.6	19.6	17.5	active
69	LOC392382	SID131511302	0	4.2	17.4	-9	inactive
70	DSC3 (desmocollin 3)	SID131511951	0	4.9	9.1	0.8	inactive
71	TC2N (tandem C2 domains, nuclear)	SID131512993	0	6.1	4.2	7.9	inactive
72	LOC389419	SID131513964	0	7.2	8.1	6.4	inactive
73	GPRIN1 (G protein regulated inducer of neurite outgrowth 1)	SID131519757	1	7.3	5.6	9	inactive

Hits, among the entries above:
Gene	PubChem SID	two-siRNA summed score (-2 to +2)	mean protection from cisplatin (shift in death) (%)	protection from cisplatin (shift in death), siRNA C (%)	protection from cisplatin (shift in death), siRNA D (%)	Call
ARIH1 (ariadne RBR E3 ubiquitin protein ligase 1)	SID131500334	-2	-22.9	-22.5	-23.2	active
COX7C (cytochrome c oxidase subunit 7C)	SID131522978	2	15.4	12.6	18.2	active
CDK15 (cyclin dependent kinase 15)	SID131523232	2	32.4	40.8	24	active
GOLT1A (golgi transport 1A)	SID131523067	2	18.6	19.6	17.5	active
